This experiment is described as follows: qHTS Assay for Lipid Storage Modulators in Drosophila S3 Cells.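 For cell number change: cells counted by Cell Tracker Red CMTPX staining in the red channel.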 The settings on record: BODIPY lipid droplet fluorescence, 18-24 h; for cell number change: measured here: cell count max response, cells fed with added oleic acid. In outline: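 Laser-scanning cytometry quantifies lipid droplet accumulation (500–530 nm total intensity; droplet/cell object ratio) in oleic acid-fed (400 uM added) Drosophila S3 cells treated with a concentration series. 20 uM Triacsin C defined 100% inhibition.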
Background: In qHTS, concentration-response curves come from the screen itself.

The mark [1] stands for this setting: measured here: cell number channel AC50, cells fed with added oleic acid.
Where [2] appears, read: measured here: lipid fluorescence (Fed channel) AC50, cells fed with added oleic acid.

This is one part of the list. Shown are side measurements of this screen, not its main read-out; they come without a call. The list favours compounds with an active or inconclusive main result. Words in brackets tell the shape of the fitted curve; partial curves, single points and poor fits give uncertain potencies.

For the compound `Cc1ccc(NC(=O)c2ccc3nc[nH]c3c2)c(O)c1`, the cell number change was -21.2%. Moreover, the AC50 under setting [1] was 0.0058 µM [falling, full curve, poor fit]. The AC50 under setting [2] is 0.00461 µM [falling, full curve, poor fit].
As for `Cc1cc(-c2ccco2)c(C#N)c2nc3ccccc3n12`, the cell number change was -34.3%. Also, the half-maximal activity concentration (AC50) under setting [1] was 2.31 µM [falling, full curve].
Consider `CCOc1ccc(Cn2c(=O)oc3ccccc32)cc1`, for which the cell number change is -11.6%. Besides, under setting [2], the AC50 is 0.103 µM [rising, full curve, poor fit].
On to `c1coc(-c2nnc(SCc3cn4ccccc4n3)o2)c1`, for which the cell number change was found to be 48%. Besides, under setting [1], the AC50 was 0.00461 µM [rising, full curve, poor fit].
Consider `Cc1ccc(C(=O)N/N=C\c2cccn2C)cn1`, for which the cell number change is -5.75%.
Take `Cc1c(C(=O)N2CCN(c3ccccc3)CC2)sc2ncnc(N3CCC(C)CC3)c12`: the AC50 under setting [2] is 6.51 µM [rising, single point].
For the compound `CCN(CC)S(=O)(=O)N1CCC(C(=O)NCc2ccc3c(c2)OCO3)CC1`, the cell number change is 28.4%. Also, the AC50 under setting [2] was 9.2 µM [rising, partial curve].
Turning to `COc1ccc(-n2nc(C(=O)NCC(=O)Nc3cc(C)ccc3OC)c3ccccc3c2=O)c(OC)c1`, the cell number change was found to be 87.8%. Besides, the AC50 under setting [1] is 20.6 µM [rising, partial curve].
Take `CCCCS(=O)(=O)Nc1ccc(C(=O)NCC2CCCO2)cc1` (stereo not given): the AC50 under setting [2] is 0.259 µM [falling, full curve].
On to `Cc1ccc(-n2c(Cc3cccs3)nnc2SCC(N)=O)cc1`, for which the cell number change was -14.2%. For the same compound, the AC50 under setting [2] was 0.517 µM [falling, single point].
In the case of `O=C1C(=O)c2ccccc2C(O)=C1C1CCC(c2ccc(Cl)cc2)CC1` (stereo not given), the AC50 under setting [2] was 4.61 µM [falling, full curve].
With `Cc1ccc(CN=C(N)Nc2nc(C)cc(C)n2)cc1`, the cell number change was -43.4%. Besides, the AC50 under setting [1] was 23.1 µM [falling, single point]. Also, under setting [2], the AC50 was 25.9 µM [falling, partial curve, poor fit].
Take `CCCCNC(=O)c1cc2ccccc2s1`: the cell number change is 50.1%. Moreover, the AC50 under setting [1] is 6.51 µM [rising, full curve]. Further, the AC50 under setting [2] was 3.26 µM [rising, full curve].
As to `COc1ccc(S(=O)(=O)NC(C)C(=O)N2CCCC2)cc1Cl` (stereo not given), the cell number change is 6.87%. Also, under setting [2], the AC50 was 23.1 µM [falling, single point].
As to `Clc1ccc2nc(-c3ccc(Br)s3)cn2c1`, the cell number change turned out to be 135%. In addition, the AC50 under setting [1] was 29.1 µM [rising, single point]. For the same compound, under setting [2], the AC50 is 23.1 µM [rising, single point].
On to `CCOc1ccc(N(CC(=O)Nc2cccc(Br)c2)S(C)(=O)=O)cc1`, for which the cell number change was -36.5%.
For the compound `Cc1ccc(N(C)S(=O)(=O)c2ccc3[nH]cc(C(=O)NCCCN4CCOCC4)c(=O)c3c2)cc1C`, the cell number change came to 13.9%. Also, the concentration at half-maximal activity (AC50) under setting [2] was 0.13 µM [falling, full curve, poor fit].
On to `O=C(NCc1ccc2c(c1)OCO2)c1ccc(COc2cccc(Cl)c2)o1`, for which the cell number change amounted to 17.3%. Under setting [2], the AC50 was 0.461 µM [rising, single point].
For `Cc1ccc(C)c(OCc2cc(C(=O)N3CCN(c4ccccc4C)CC3C)no2)c1` (stereo not given), the cell number change came out at 10.3%. The AC50 under setting [1] is 1.84 µM [rising, partial curve, poor fit]. Under setting [2], the AC50 is 6.51 µM [rising, partial curve, poor fit].
`C=CCn1c(O)c(C(CC)=Nc2ccccc2NC(=O)CC)c(=O)[nH]c1=O`: the cell number change came to 13.1%. Under setting [2], the AC50 was 0.651 µM [falling, single point].
`CCCCn1c(N)c(-c2nc3ccccc3o2)c2c([N+](=O)[O-])nn(C)c(=O)c21`: the cell number change stood at 5.88%. Besides, the AC50 under setting [2] is 29.1 µM [falling, single point].
For the compound `O=C1[C@@H]2C(c3cccnc3)=NO[C@@H]2C(=O)N1c1ccc2ccccc2c1`, the cell number change is -3.94%. In addition, the AC50 under setting [2] is 0.82 µM [falling, single point].
With `Cc1ccccc1-n1nc(C(=O)O)cc1-c1ccccc1`, the AC50 under setting [2] is 6.51 µM [falling, single point].
As to `O=C(CN1CCN(S(=O)(=O)c2ccc(F)cc2)CC1)Nc1ccc(F)cc1F`, the cell number change was found to be 9.23%.
Regarding `CCOc1ccccc1-c1nc(C(N)=O)c2[nH]c(=O)n(-c3ccc(F)cc3)c2n1`, the cell number change was determined as 74.7%. Besides, the AC50 under setting [1] was 29.1 µM [rising, single point]. Besides, the half-maximal activity concentration (AC50) under setting [2] was 29.1 µM [falling, single point].
With `CCCC(=O)C1CCN(Cc2ccccc2)CC1`, the cell number change is -0.642%. The AC50 under setting [2] is 1.64 µM [falling, partial curve].
As for `Cc1ccc(S(=O)(=O)N2CCOCC2)cc1NC(=O)COC(=O)C1COc2ccccc2O1` (stereo not given), the cell number change came out at 5.89%.
`Cc1ccc(C)c(N2CC(=O)N(c3cc(C)ccc3C)CC2=O)c1`: the cell number change is -42.4%. Besides, the AC50 under setting [1] is 25.9 µM [falling, single point]. In addition, the AC50 under setting [2] was 29.1 µM [falling, single point].
For the compound `COc1ccccc1C(=O)Nc1ccc(OC(C)C(=O)N2CCOCC2)cc1` (stereo not given), the cell number change was 7.92%. Moreover, the AC50 under setting [1] is 0.0092 µM [rising, full curve, poor fit].
Turning to `O=c1c2ccccc2nc(SCc2cc(F)cc3c2OCOC3)n1Cc1ccco1`, the cell number change is 7.81%.
The same measure, in the same setting: next, `Cn1cc(C2CC(c3ccccc3)=NN2C(=O)c2ccccc2)c2ccccc21` (stereo not given): -24.2%.
For the compound `Cc1ccc(NC(=O)CCOc2ccccc2)c(C)c1`, the cell number change is 11%. Moreover, the AC50 under setting [2] is 0.092 µM [rising, full curve].
Take `CCOc1ccccc1OCCCC(=O)N(CC)CC(=O)Nc1c(F)cccc1F`: the cell number change was -29.5%. The AC50 under setting [2] was 16.4 µM [falling, partial curve, poor fit].
For `O=C(NCc1ccc(Cl)cc1)c1cccc(NC(=O)c2ccccc2)c1`, the cell number change stood at 29.6%. Also, under setting [2], the AC50 was 2.06 µM [rising, full curve].
In the case of `CC(=O)Nc1ccccc1OCC(=O)c1ccc2c(c1)OCO2`, the cell number change was -17.3%.
As to `CC(=O)c1cccc(NC(=O)NC(C)c2ccc3c(c2)OCO3)c1` (stereo not given), the cell number change was -34.9%. Besides, the AC50 under setting [2] was 35.5 µM [falling, single point].
For the compound `C=CCOC(=O)C1=C(C)OC(N)=C(C#N)C1c1c(C)nn(-c2ccccc2)c1Cl` (stereo not given), the cell number change was -36.4%. Moreover, the AC50 under setting [1] is 23.1 µM [falling, partial curve]. Under setting [2], the AC50 was 16.4 µM [falling, partial curve, poor fit].
For `CN1CCN(c2nc(N3CCN(CCO)CC3)nc3ccccc23)CC1`, the cell number change was -12.9%. In addition, under setting [2], the AC50 is 29.1 µM [rising, single point].
`O=C(/C=C/Nc1ccc(Oc2ccccc2)cc1)c1ccco1`: the cell number change was -39.4%. Besides, the AC50 under setting [1] is 18.4 µM [falling, partial curve, poor fit].

As usually defined, the AC50 is the concentration at which the activity in the assay is half-maximal. Low readings indicate activity at low concentration, high ones activity only at high concentration.

Source of the values: PubChem BioAssay AID2685 (National Center for Advancing Translational Sciences (NCATS), 2010).
